In patent US20250250265A1, “BENZOTHIAZOLE-PHENYLSULFONYL-PIPERIDINE ANALOGS AS ACTIVATORS OF NACYLPHOSPHATIDYLETHANOLAMINE HYDROLYZING PHOSPHOLIPASE D” (priority 2022, published 2025):
Some entries share one result that the patent states for a list of compounds.

Molecular target: T1, recombinant mouse NAPE-PLD (Mus musculus, UniProt Q8BH82)
T1 construct: hexahistidine (His6) (C); made in house; host or cells: E. coli
T1 sequence (Q8BH82 1-396): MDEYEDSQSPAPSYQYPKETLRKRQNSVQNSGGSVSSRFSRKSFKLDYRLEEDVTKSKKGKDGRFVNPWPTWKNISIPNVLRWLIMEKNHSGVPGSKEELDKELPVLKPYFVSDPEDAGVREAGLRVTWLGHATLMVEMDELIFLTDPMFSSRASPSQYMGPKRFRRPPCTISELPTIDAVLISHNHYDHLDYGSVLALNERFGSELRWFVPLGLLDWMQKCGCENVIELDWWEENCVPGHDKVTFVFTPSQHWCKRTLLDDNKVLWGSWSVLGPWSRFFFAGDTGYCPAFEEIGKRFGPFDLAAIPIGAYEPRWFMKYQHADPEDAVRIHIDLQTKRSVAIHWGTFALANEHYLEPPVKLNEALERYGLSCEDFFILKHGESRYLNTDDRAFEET
Experiment: In vitro fluorescence NAPE-PLD activity assay (HTS/CRC) with recombinant mouse NAPE-PLD and PED-A1
Assay type: biochemical
Details: Table 4; maximal efficacy as fold increase in NAPE-PLD activity versus vehicle only
Procedure: Using the fluorogenic NAPE substrate, PED-A1, and recombinant mouse NAPE-PLD (rNAPE-PLD), an in vitro high-throughput (HTS) assay was conducted to screen ˜40,000 compounds for their ability to modulate NAPE-PLD activity. The HTS assay enabled the detection of both NAPE-PLD activators and inhibitors. […] Initial structure-activity response studies with the top hits identified benzothiazole phenylsulfonyl-piperidine carboxamide analogs (BT-PSP analogs) as lead compounds for NAPE-PLD activators (Table 1). The lead BT-PSP analog identified, VU534, induces 50% of its activation effect on NAPE-PLD at 270 nM (AC50 270 nM), and induces a maximal effect of 195% of basal NAPE-PLD activity (Table 1).
In vitro fluorescence NAPE-PLD activity assays using recombinant NAPE-PLD and either PED-A1 or flame-NAPE as fluorogenic substrate were performed as previously described except with small modifications as noted below. See Aggarwal et al., J. Biol. Chem. 295(21): 7289-7300 (2020); Zarrow et al., J. Lipid Res. 63(1): 100156 (2022).
For the HTS assays, test compounds were incubated with recombinant enzyme for 1 h prior to adding PED-A1 (final 0.4 μM) mixed with N-palmitoyl-dioleoyl-PE (final 3.6 μM) to adjust for the high sensitivity of the Panoptic instrument (WaveFront Biosciences). Assays used black-wall, clear-bottom, non-sterile, and non-treated 384-well plates (Greiner Bio-One 781906). The assay was read in kinetic fluorescence mode on the Panoptic instrument for 4 min and the slope of the signal from 30-100 s was used for analysis. A total of 39,328 compounds from the Vanderbilt Discovery Collection were tested, each at 10 μM. The tested compounds were chosen to represent a structurally diverse selection from the full library. Each 384-well plate included 320 test compound wells and 64 control wells. Unlike previous pilot screening assays, bithionol (10 μM final) was used in place of lithocholic acid (100 μM final) as the inhibitor control. Before performing high-throughput screening, a checkerboard assay was performed to validate the assay parameters. This yielded a Z′ score of 0.676. Z′ scores were also calculated for each plate during screening, and plates with scores <0.5 were re-run. The average Z′ across all screening plates was 0.52, and the total hit rate was 3.6%. B-scores were calculated from the initial slopes across each plate using WaveGuide software (WaveFront Biosiences). Modulator hits were defined as compounds with absolute B-scores of 3 or higher. The number of compounds in various B-score ranges were as follows: […], 12 compounds; −10 to −5, 221 compounds; −5 to −3, 770 compounds; −3 to 3, 37924 compounds; 3 to 4, 314 compounds; 4 to 6, 70 compounds; 6 to 10, 15 compounds. […]

Compound | Emax (95% Cl)
Cc1cc(F)ccc1S(=O)(=O)N1CCC(C(=O)Nc2nc3ccccc3s2)CC1 [VU205] | < 1.2 fold
O=C(Nc1nc2ccccc2s1)C1CCN(S(=O)(=O)c2ccc(F)c(Cl)c2)CC1 [VU233] | < 1.2 fold
Cc1ccc(C)c2sc(NC(=O)C3CCN(S(=O)(=O)c4ccc(F)cc4)CC3)nc12 [VU533] | > 2.0 fold
Cc1cc(C)c2sc(NC(=O)C3CCN(S(=O)(=O)c4ccc(F)cc4)CC3)nc2c1 [VU534, N-(5,7-Dimethylbenzo[d]thiazol-2-yl)-1-((4-fluorophenyl)sulfonyl)piperidine-4-carboxamide] | > 2.0 fold
